Among the data in patent US20220289795, “EFFICIENT METHOD FOR PREPARING PPR PROTEIN AND USE OF THE SAME” (EditForce, Inc., published 2022) are functional effect values, retold here.

Protein sequences can lack the tags named with them.

Data set [1] has as its system T1, v1_PPRsp6 (Artificial Sequence).
T1 sequence: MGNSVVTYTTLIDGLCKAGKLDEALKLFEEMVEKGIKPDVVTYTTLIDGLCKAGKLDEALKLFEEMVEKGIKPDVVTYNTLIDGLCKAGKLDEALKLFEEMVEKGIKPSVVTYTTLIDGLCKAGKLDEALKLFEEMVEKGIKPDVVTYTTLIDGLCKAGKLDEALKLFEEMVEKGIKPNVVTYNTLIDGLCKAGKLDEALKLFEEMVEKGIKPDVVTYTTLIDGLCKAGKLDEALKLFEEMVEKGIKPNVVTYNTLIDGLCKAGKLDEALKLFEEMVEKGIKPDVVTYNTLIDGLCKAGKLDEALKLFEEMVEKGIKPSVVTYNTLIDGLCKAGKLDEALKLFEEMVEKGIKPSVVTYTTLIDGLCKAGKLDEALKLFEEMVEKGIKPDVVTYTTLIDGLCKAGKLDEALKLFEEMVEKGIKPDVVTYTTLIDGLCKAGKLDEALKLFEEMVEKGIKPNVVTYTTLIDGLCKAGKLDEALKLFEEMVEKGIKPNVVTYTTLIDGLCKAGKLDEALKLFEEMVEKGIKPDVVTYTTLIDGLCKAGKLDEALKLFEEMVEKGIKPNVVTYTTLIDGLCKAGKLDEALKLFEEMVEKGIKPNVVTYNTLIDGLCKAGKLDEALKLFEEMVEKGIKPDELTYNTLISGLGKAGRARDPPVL
As to the kind of experiment: activity in cells. As to conditions: splicing ratio of RG6 changed, HEK293T; protein in cells; protein details: N-term NLS, C-term FLAG; only the site is given.

In data set [2] the test system is T2, v2_PPRsp6 (Artificial Sequence).
T2 sequence: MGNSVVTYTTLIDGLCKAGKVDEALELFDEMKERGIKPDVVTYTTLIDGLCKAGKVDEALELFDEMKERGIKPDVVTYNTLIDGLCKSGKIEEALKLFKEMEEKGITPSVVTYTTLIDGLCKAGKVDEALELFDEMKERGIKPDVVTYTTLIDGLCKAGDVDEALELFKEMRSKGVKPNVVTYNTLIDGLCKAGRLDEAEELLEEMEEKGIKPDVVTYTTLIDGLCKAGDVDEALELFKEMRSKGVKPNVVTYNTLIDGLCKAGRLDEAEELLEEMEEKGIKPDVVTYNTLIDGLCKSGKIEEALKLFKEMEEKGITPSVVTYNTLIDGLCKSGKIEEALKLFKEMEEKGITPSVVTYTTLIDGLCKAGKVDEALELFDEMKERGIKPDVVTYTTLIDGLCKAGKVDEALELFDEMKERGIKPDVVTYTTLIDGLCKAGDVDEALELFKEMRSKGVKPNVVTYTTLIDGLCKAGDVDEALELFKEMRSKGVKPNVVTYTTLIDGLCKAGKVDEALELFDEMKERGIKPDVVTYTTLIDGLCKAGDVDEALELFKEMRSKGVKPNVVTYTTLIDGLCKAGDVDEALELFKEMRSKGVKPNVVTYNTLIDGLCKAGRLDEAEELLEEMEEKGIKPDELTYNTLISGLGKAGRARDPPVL
As to the kind of experiment: activity in cells. As to conditions: larger splicing change than v1, HEK293T; protein in cells; protein details: N-term NLS, C-term FLAG; only the site is given.

As for GGCGAUAUCCGGAAGAAU [T82 (RG6 reporter)], the functional effect result in data set [1] and in data set [2] was “active” throughout.
